Source: patent publication US6221608A, “Methods for identifying erythropoietin receptor binding protein” (Ortho Pharmaceutical Corporation, priority 1997, dated 2001)
The name of at least one read-out is uncertain.

The chains behind the UniProt entries cited, without tags or fusion partners. A line that says so, or that is headed by a name, gives the form on record, which may keep a tag or linker.
UniProt P19235, with tags, fused parts or gaps limits assumed: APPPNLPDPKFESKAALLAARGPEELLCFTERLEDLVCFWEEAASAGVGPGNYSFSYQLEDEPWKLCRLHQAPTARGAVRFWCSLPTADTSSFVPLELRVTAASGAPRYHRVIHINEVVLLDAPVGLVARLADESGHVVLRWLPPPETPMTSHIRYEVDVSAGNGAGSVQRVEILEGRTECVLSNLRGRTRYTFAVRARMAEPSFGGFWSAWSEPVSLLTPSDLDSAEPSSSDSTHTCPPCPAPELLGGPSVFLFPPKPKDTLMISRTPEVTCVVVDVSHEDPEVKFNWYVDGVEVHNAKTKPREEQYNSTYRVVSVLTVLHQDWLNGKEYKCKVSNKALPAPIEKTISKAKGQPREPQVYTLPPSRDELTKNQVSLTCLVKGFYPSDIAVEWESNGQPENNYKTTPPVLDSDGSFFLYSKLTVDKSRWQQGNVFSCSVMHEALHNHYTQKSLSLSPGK

How the values were obtained:
EBP-Ig [1] = target: T1, EBP-Ig (Homo sapiens, UniProt P19235); experiment: EBP-Ig Flash Plate EPO radioligand binding assay; conditions: 0.5 nM [125I]EPO, 1 μg/ml biotinylated EBP-Ig (3S mutant), 5% DMSO, overnight; read-out: EBP-Ig Binding IC 50
T1 construct: one encoding amino acids 1-225 of the extracellular domain of the mature hEPOR; made in house
Source text: The interaction of biotin and strepavidin is frequently employed to capture and effectively immobilize reagents useful in assay protocols and has been employed here as a simple method to capture and immobilize EBP-Ig. EBP-Ig is initially randomly modified with an amine reactive derivative of biotin to produce biotinylated-EBP-Ig. Use of strepavidin coated plates allows the capture of the biotinylated EBP-Ig on the surface of a scintillant impregnated coated well (Flash plates, NEN-DuPont). […] The amount of light produced was quantified to estimate the amount of ligand binding. The specific assay format was suitable for the multi-well plate capacity of a Packard TopCount Microplate Scintillation counter.
Biotinylated EBP-Ig (3S mutant) was prepared as follows. EBP-Ig (3 ml, OD280 2.9) was exchanged into 50 mM sodium bicarbonate, pH 8.5 using a Centriprep 10 ultrafiltration device. […] 10 μl of a 4 mg/ml solution of NHS-LC-Biotin (Pierce) was added and the reaction mixture placed on ice in the dark for two hours. […]
All wells were adjusted to a final DMSO concentration of 5%. […] The next day all liquid was aspirated from the wells to limit analyte dependent quench of the signal, and the plates were counted on a Packard TOPCOUNT Microplate Scintillation Counter. […] Corrected total binding (CTB) was calculated as: TB-NSB=CTB. […]

EBP-Ig [2] = target: T1, EBP-Ig; experiment: Fluorescence polarization competitive binding assay with fluorescein-RWJ 61718; conditions: EBP-Ig (3S mutant) 0.025 mg/ml, fluorescein-RWJ 61718 2.5 μM; read-out: FP/EBP-Ig IC50
Protocol: Fluorescence polarization (FP) is a useful technique capable of providing information on changes in molecular volume which occur upon the association or dissociation of two molecules. […] Conversely, if a non-fluorescent competitor molecule is added to this complex then a decrease in the fluorescence polarization value can be anticipated [Checovich, W. J., Bolger, R. E. & Burke, T. Fluorescence polarization-a new tool for cell and molecular biology, Nature 375, 254-256 (1995)]. RWJ 61718 was labeled with a fluorescein reporter group by treating 10 mg of peptide solubilized in 3 ml of PBS with 17.9 mg of fluorescein isothiocyanate dissolved in 1 ml DMSO (added in 100 μl aliquots). […] A highly fluorescent peak eluting at near 60 minutes (ca 60% mobile phase B) was determined to be the desired product by monitoring FP changes in the presence of EBP-Ig.
A competitive FP assay using fluorescein labeled RWJ 61718 as the receptor ligand was established as follows using a Fluorescence Polarization Microtiter System (Jolley Consulting). […] Baseline peptide values were determined from wells which contained only labeled peptide and PBS. Total mP readings were determined in test wells which contained labeled peptide and EBP-Ig only. Peptide concentration dependent competitive reduction in mP values were determined and an IC50 value calculated.

## YSCHFGPLTWVCK (YSCHFGPLYWVCK) [RWJ 61279]
EBP-Ig [1]
  IC50: 60 µM
EBP-Ig [2]
  IC50: 6 µM
